Primary screen of a compound library

Measurements from “University of Dundee, Small-Polar-MMV Screening Library” (2021), ChEMBL document CHEMBL3988442.

Results are given as percent effect. How 0% and 100% were set is not recorded. Most values in the screen are low, and negative values occur. This is an unselected part of the compounds tested. A dash means the value is not listed here; it may have been measured.

A: 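Whole-cell assay for inhibitors of Mycobacterium tuberculosis growth, labelled Cornell in the record; the read-out is not stated. The concentration is filed as 10 mM, unlikely as a test dose, so the dose is not known. The record gives no direction; compounds strong in two other growth screens of this library score well above the rest, so higher reads as stronger inhibition. About 53,000 compounds were tested under these conditions; 1.7% (about 900) showed 50% or more at least once.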
B: 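Assay on Mycobacterium tuberculosis, filed only as a heat shock assay from Cornell; the read-out is not stated. The concentration is filed as 10 mM, unlikely as a test dose, so the dose is not known. The record gives no direction; compounds that gave an IC50 in retests scored well above the rest, so higher reads as stronger inhibition. Of about 69,000 compounds tested this way, about 930 (1.4%) reached 50% or more in at least one test.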

| # | SMILES | A | B |
|---|---|---|---|
| 1 | `CS(=O)(=O)CCN(CCCO)C1CCc2ccccc21` (stereo not drawn) | 3.397 | -28.85 |
| 2 | `COc1cc(OC)cc(C(=O)N(C)Cc2nnc3ccccn23)c1` | - | -8.566 |
| 3 | `CC(C)c1ncc2c(n1)CN(Cc1cccc(OCC(N)=O)c1)CC2` | - | -8.473 |
| 4 | `O=C(c1ccnnc1)N1CCc2ncnc(C3CCOC3)c2CC1` (stereo not drawn) | 28.1 | 8.852 |
| 5 | `Cc1ncsc1CCN(C)C(=O)c1ccc(Cn2cnnn2)cc1` | 20.99 | -22.98 |
| 6 | `C/C=C(\C)CN1C[C@H](NC(=O)c2cc[nH]c2C)[C@@H](C2CC2)C1` | 46.73 | 17.21 |
| 7 | `CCN(C(=O)c1nc2c(s1)CCCN2C(C)=O)C(C)C` | 6.274 | -1.486 |
| 8 | `COc1ccc2c(c1)CC(NCc1cccc(CO)c1)CC2` (stereo not drawn) | 10.74 | 2.687 |
| 9 | `O=C(O)C(F)(F)F.[H][C@@]12CCN(Cc3c(C)noc3C)C[C@]1(C(=O)N1CCCC1)CCO2` | -19.64 | -15.89 |
| 10 | `[H][C@]12CC[C@@]3(N=C(c4ccccc4)NC3=O)[C@@]1([H])CN(C(=O)N1CCCC1)C2` | -18.27 | -49.33 |
| 11 | `N#Cc1ccc(S(=O)(=O)Nc2ccccc2C#N)cn1` | 63.63 | 14.88 |
| 12 | `Cc1c(Br)c(C(F)F)nn1C(C)C(=O)O` (stereo not drawn) | 18.88 | -3.744 |
| 13 | `Cl.Cl.NCC(=O)N1CCCC(c2ccnc(Nc3cnccn3)n2)C1` (stereo not drawn) | 26.03 | -12.83 |
| 14 | `COc1ccc(Cn2ccnc2)cc1F` | 3.787 | 3.296 |
| 15 | `O=C(O)C(F)(F)F.[H][C@@]12CCN(Cc3ccc4c(c3)OCO4)C[C@]1([H])O[C@@H](C(=O)NCC1CC1)C2` | -2.518 | -28.42 |
| 16 | `CN(C)[C@@H]1CCN(C(=O)NC2CCCC2)[C@H]1Cc1ccncc1.O=C(O)C(F)(F)F.O=C(O)C(F)(F)F` | -26.27 | -7.372 |
| 17 | `CN(CC1CN(Cc2cn3ccsc3n2)CCO1)c1cccnn1` (stereo not drawn) | - | -4.483 |
| 18 | `COc1ccc(C(C(=O)O)N(C)CCN2CCOCC2)c(C)c1` (stereo not drawn) | -4.122 | 9.226 |
| 19 | `Cc1cc(NCCO)nc(N2CCCC2)c1C#N` | 12.03 | -15.72 |
| 20 | `Cc1nc(O)cc(C2CCCN(C(=O)COCc3ccccc3)C2)n1` (stereo not drawn) | 25.23 | -4.141 |
| 21 | `CC(C)(C)C(CCO)NC(=O)Nc1ccncc1` (stereo not drawn) | - | -11.99 |
| 22 | `CN(C)c1nccnc1C1CCN(C2CCCCC2O)CC1` (stereo not drawn) | 24.95 | -23.65 |
| 23 | `COCCN1CCC2(CC1)CC(c1ccccc1)C(=O)N2C` (stereo not drawn) | 23.95 | -31.54 |
| 24 | `Cc1cccc(O[C@H]2COCCN(C3CCOCC3)C2)n1` | 2.132 | -31.34 |
| 25 | `Cc1c(S(=O)(=O)N2CCOCC2)cc2c(C)cc(=O)n3c2c1CCC3` | - | -6.212 |
| 26 | `Cc1ccc(CN(CCCN2CCOCC2)Cc2[nH]cnc2C)o1.O=C(O)CC(O)(CC(=O)O)C(=O)O` | 5.474 | 4.402 |
| 27 | `OCCC1CN(c2ncnc3[nH]cnc23)CCN1Cc1ccccc1F` (stereo not drawn) | -5.778 | -7.263 |
| 28 | `O=C(O)C(F)(F)F.[H][C@@]12CCN(c3ccncn3)[C@]1([H])CC[C@@H](C(=O)N1CCCCO1)O2` | -2.62 | 37.44 |
| 29 | `Cn1cc(CN(Cc2cccc(-n3cccn3)c2)C2CC2)cn1` | -0.1331 | -20.22 |
| 30 | `CCC(O)CN1CCN(C(=O)c2ccn(C)c(=O)c2)CC1` (stereo not drawn) | -1.317 | 5.218 |
| 31 | `Cc1[nH]c2c(C)ccc(C)c2c1CC(=O)NCC(O)c1cccnc1` (stereo not drawn) | -11.24 | -5.167 |
| 32 | `Cc1nccn1-c1cc(CNC(=O)CCNC(=O)OC(C)(C)C)ccn1` | 6.167 | 8.295 |
| 33 | `O=C(O)C(F)(F)F.O=C(O)C(F)(F)F.c1cc(CN2CCC3(CC2)COC(COCC2CC2)C3)ccn1` (stereo not drawn) | 13.72 | -20.97 |
| 34 | `CC(C)Nc1nc(C(=O)Nc2ccccn2)cs1` | 27.58 | 9.074 |
| 35 | `COc1c(NC(=O)C(C)CCOc2ccccc2)c(C)nn1C` (stereo not drawn) | 1.378 | 3.236 |
| 36 | `N#Cc1cccnc1NCCNC(=O)N1CCCC(C(F)(F)F)C1` (stereo not drawn) | - | 8.017 |
| 37 | `O=C(CCc1ccc(Cl)s1)NCc1nnc2n1CCCCC2` | 3.836 | -11.39 |
| 38 | `O=C(c1ccc[nH]1)N1CCC(c2nccn2Cc2ccncc2)CC1` | 0.9782 | 21.71 |
| 39 | `Cc1nc(O)c2nnn(C[C@H]3CCCN3C(=O)c3ccccc3F)c2n1` | 1.977 | 2.534 |
| 40 | `Cc1ccn(CCNc2ncnc3c2CCN(c2cnccn2)CC3)n1` | 0.9206 | -14.17 |
| 41 | `Cc1ccc(-c2nnc(CN3CCOC(Cn4cccn4)C3)o2)cc1` (stereo not drawn) | 46.14 | -1.745 |
| 42 | `COc1cccc(N2CCN(CCC(=O)NC3CCCCC3)CC2)c1` | - | -18.89 |
| 43 | `O[C@@H]1CN(c2nc3ccccc3o2)CC[C@H]1c1ccc2c(c1)OCO2` | 1.12 | -10.34 |
| 44 | `CCc1cc(C(F)(F)F)c2c(C3CCN(C(=O)COC)CC3)noc2n1` | 16.69 | 1.543 |
| 45 | `Cc1ccccc1CN(C)C(=O)CN1CCOC(Cn2cncn2)C1` (stereo not drawn) | - | -6.554 |
| 46 | `Cn1cc(C[C@H]2[C@H](O)CCN2C(=O)C2CCOCC2)cn1` | 5.98 | 9.289 |
| 47 | `CCC(=O)N1CCC2(CC1)C(=O)N(C)CCN2Cc1csc(C)n1.O=C(O)C(F)(F)F` | 8.679 | 31.91 |
| 48 | `Cc1cc(NC(=O)CCN2CCCC2Cn2cncn2)no1` (stereo not drawn) | - | -3.684 |
| 49 | `Cc1ccc(CNCCCNS(C)(=O)=O)c(Br)c1` | 12.69 | -8.964 |
| 50 | `CCn1cncc1CNC(=O)c1ccc(C2CCCN2C(=O)COC)s1` (stereo not drawn) | - | 5.034 |
| 51 | `O=C1CC2(CCN(Cc3ccoc3)C2)CN1c1ccc2c(c1)OCO2` (stereo not drawn) | 11.19 | 19.47 |
| 52 | `CC(C)c1cc(C(=O)N2CCCC(n3cncn3)C2)n[nH]1` (stereo not drawn) | - | -20.76 |
| 53 | `Cc1ccc2c(c1)C(NC(=O)N(C)C)CC21CCN(C(C)C)CC1.O=C(O)C(F)(F)F` (stereo not drawn) | 8.3 | -4.716 |
| 54 | `Clc1ccc(OCCNCCn2cccn2)cc1` | -8.501 | -6.93 |
| 55 | `Cc1cccc(NC(C)C(=O)Nc2nccs2)c1` (stereo not drawn) | 6.251 | 31.18 |
| 56 | `O=C(O)C(F)(F)F.[H][C@@]12CCN(CCc3ccccc3)C[C@@]1([H])O[C@@H](C(=O)NCC1CC1)C2` | 4.991 | -2.986 |
| 57 | `Cc1ccc(NC(=O)CN2CCOCC2)c(F)c1` | -22.92 | -8.109 |
| 58 | `CN(Cc1ccco1)C(=O)NCc1ccnc(SC(C)(C)C)c1` | - | -1.517 |
| 59 | `CN(CCC#N)C(=O)Cn1cnc2c(Br)cccc2c1=O` | -5.828 | -10.35 |
| 60 | `CC(=O)Nc1ccc(CNc2cccc(CS(C)(=O)=O)c2)cc1` | - | 9.448 |
| 61 | `Cc1ncsc1C(=O)NCCSCc1cccs1` | 6.227 | -2.542 |
| 62 | `CCC(Nc1cccc(OC)c1)C(=O)N(CCO)Cc1nccs1` (stereo not drawn) | - | 12.8 |
| 63 | `CCCc1nc(C(C)(C)NC(=O)C2CC(=O)N(CCOC)C2)no1` (stereo not drawn) | - | 0.3849 |
| 64 | `Cc1cc(C2CCCN(C(=O)COc3ccccc3F)C2)n[nH]1` (stereo not drawn) | -18.99 | -19.65 |
| 65 | `Cc1nc(S(=O)(=O)N2CCSC3(CCCCC3)C2)cn1C` | 6.72 | -18.44 |
| 66 | `O=C(Nc1cc(C2CCOCC2)[nH]n1)c1cc[nH]n1` | - | -13.17 |
| 67 | `O=C(O)C(F)(F)F.[H][C@@]12CCN(CC3CCOCC3)[C@@]1([H])CCN2C(=O)c1cccc(C#N)c1` | -28.14 | -14.05 |
| 68 | `Cc1noc(C)c1C(=O)N(Cc1ccsc1)CC1CCCO1` (stereo not drawn) | 6.996 | -39.44 |
| 69 | `CN(c1ncc(C(=O)NCc2ccccc2)c(N)n1)C1CCCCC1` | -5.384 | -7.415 |
| 70 | `CCc1nc(CN2CCCN(CC(O)c3ccccc3)CC2)no1` (stereo not drawn) | 13.72 | -4.979 |
| 71 | `Cc1ccccc1-n1ncc(C(C)N)c1C` (stereo not drawn) | -37.72 | -3.847 |
| 72 | `N#Cc1cc(NS(=O)(=O)c2ccc(C(=O)O)cc2F)ccc1F` | 16.06 | 5.23 |
| 73 | `O=C(O)C(F)(F)F.O=C(O)C(F)(F)F.O=C(O)C(F)(F)F.[H][C@@]12CN(Cc3ccncc3)C[C@]1([H])[C@@H](OC)CCN2Cc1c(C)noc1C` | 12.8 | 2.405 |
| 74 | `Cc1nc(NC(=O)c2c(-n3cnnn3)sc(C)c2C)sc1C` | 32.81 | 4.776 |
| 75 | `Cc1cc(F)c(S(=O)(=O)N(C)CCn2cccn2)cc1F` | -14.51 | -39.66 |
| 76 | `CCCC(=O)N1CCC(c2cc3cccnc3c(O)n2)CC1` | 4.327 | -11.07 |
| 77 | `O=C(O)C(F)(F)F.O=C(O)C(F)(F)F.O=C(c1ccc[nH]1)N1CCc2c(COCc3ccncc3)cncc2C1` | 7.206 | 4.197 |

Repeated from the top, 7 entries:

SMILES,A,B
CS(=O)(=O)CCN(CCCO)C1CCc2ccccc21 (stereo not drawn),3.397,-28.85
COc1cc(OC)cc(C(=O)N(C)Cc2nnc3ccccn23)c1,-,-8.566
CC(C)c1ncc2c(n1)CN(Cc1cccc(OCC(N)=O)c1)CC2,-,-8.473
O=C(c1ccnnc1)N1CCc2ncnc(C3CCOC3)c2CC1 (stereo not drawn),28.1,8.852
Cc1ncsc1CCN(C)C(=O)c1ccc(Cn2cnnn2)cc1,20.99,-22.98
C/C=C(\C)CN1C[C@H](NC(=O)c2cc[nH]c2C)[C@@H](C2CC2)C1,46.73,17.21
CCN(C(=O)c1nc2c(s1)CCCN2C(C)=O)C(C)C,6.274,-1.486